The values below come from article PMC4558169, “Anchoring of both PKA-RIIα and 14-3-3θ regulates retinoic acid induced 16 mediated phosphorylation of heat shock protein 70” (Oncotarget, 2015).

The chains behind the UniProt entries cited, without tags or fusion partners.
UniProt Q86V87: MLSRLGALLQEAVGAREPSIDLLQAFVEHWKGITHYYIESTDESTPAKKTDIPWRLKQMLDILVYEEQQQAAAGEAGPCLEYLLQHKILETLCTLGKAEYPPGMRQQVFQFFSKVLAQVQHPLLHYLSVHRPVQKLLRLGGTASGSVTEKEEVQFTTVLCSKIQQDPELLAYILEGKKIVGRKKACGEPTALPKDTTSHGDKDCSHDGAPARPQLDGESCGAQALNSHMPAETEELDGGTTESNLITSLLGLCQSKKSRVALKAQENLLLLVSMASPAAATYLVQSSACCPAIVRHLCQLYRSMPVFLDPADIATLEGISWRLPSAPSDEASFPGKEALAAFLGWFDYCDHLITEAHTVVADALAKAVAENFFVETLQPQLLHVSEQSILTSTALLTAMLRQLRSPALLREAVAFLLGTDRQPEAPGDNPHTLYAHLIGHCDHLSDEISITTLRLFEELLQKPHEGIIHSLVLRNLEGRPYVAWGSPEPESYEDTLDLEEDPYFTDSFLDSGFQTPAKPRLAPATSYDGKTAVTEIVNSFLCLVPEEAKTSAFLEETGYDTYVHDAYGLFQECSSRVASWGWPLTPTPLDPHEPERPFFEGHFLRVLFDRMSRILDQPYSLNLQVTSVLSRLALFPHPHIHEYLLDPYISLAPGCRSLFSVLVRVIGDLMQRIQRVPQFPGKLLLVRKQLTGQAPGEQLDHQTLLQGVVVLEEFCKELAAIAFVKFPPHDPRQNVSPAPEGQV

For this experiment, the target named is Flag-tagged retinoic acid induced 16 (RAI16), full length (UniProt Q86V87). Description: affinity purification with mass spectrometry; lysates of HEK293T cells expressing Flag-tagged RAI16, anti-Flag immunoprecipitation, associated proteins identified by tandem (MS/MS) mass spectrometry (LTQ Orbitrap).

These are yes or no findings as the source states them, for the method shown. In cells and extracts the contact can be indirect. Here binding means that the protein was enriched with, or labelled near, the bait; the list need not be complete.

In the case of “endogenous PKA-RIIα (from UniProt P13861-1 1-404)”, the binding entry is “binds”.

B1: endogenous 14-3-3θ (natural protein, human (endogenous in HEK293T), UniProt P27348 1-245, looked up)
chain: MEKTELIQKAKLAEQAERYDDMATCMKAVTEQGAELSNEERNLLSVAYKNVVGGRRSAWRVISSIEQKTDTSDKKLQLIKDYREKVESELRSICTTVLELLDKYLIANATNPESKVFYLKMKGDYFRYLAEVACGDDRKQTIDNSQGAYQEAFDISKKEMQPTHPIRLGLALNFSVFYYEILNNPELACTLAKTAFDEAIAELDTLNEDSYKDSTLIMQLLRDNLTLWTSDSAGEECDAAEGAEN
notes: 14-3-3 protein theta, endogenous in HEK293T cells; source: endogenous, HEK293T lysate
With B1, the binding result was “binds”.
